About 4,300 (3.1%) of roughly 140,000 compounds were called active. The shares of active, inactive and inconclusive entries below differ from those in the screen.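 How the source made its calls: active means readout at or below -70, meaning at least 70% loss of cells showing the perinucleolar compartment, a nuclear body marking cancer cells; inconclusive means readout between -30 and a set limit; inactive means the rest.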
Experiment: High Content Assay for Compounds that inhibit the Assembly of the Perinucleolar Compartment;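 further: plate controls were DMSO wells for no effect and camptothecin positive control wells for full effect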
Conditions: PC3M PTB-GFP, PNC prevalence imaging, 16 h; at 10 µM; stronger effect = lower value
Procedure, shortened: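 Compounds are pinned in duplicate onto adhered PC3M cells stably expressing GFP-tagged PTB and incubated 16 h at 37 C. Cells are then fixed, nuclei stained with Hoechst, and PNC-positive cells counted.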

Compound	activity change (PNC), negative = inhibition
CC(C)C(=O)Nc1ccc(C(=O)NNC(=O)C(c2ccccc2)c2ccccc2)cc1	inconclusive: -61.4%
COc1ccc(C(=O)Cn2nnc(-c3ccccc3NC(=O)C3CC3)n2)cc1	inconclusive: -45.8%
CNC(=O)CN(c1cc(C)ccc1OC)S(=O)(=O)c1ccc(C)cc1	inactive: 5.93%
CCOc1ccc(NS(=O)(=O)c2cc(NC(=O)c3ccc(C)cc3)ccc2Cl)cc1	inconclusive: -37.5%
CC1(C)C(=O)C2(CCCC2)C(=O)OC1c1ccco1 (stereo not drawn)	inactive: 22.1%
O=C1C=C(c2ccccc2)OC(=O)C1C(=O)c1ccccc1 (stereo not drawn)	active: -100%
O=C(CCNS(=O)(=O)c1cccc2nsnc12)NCCC1=CCCCC1	inactive: 5.87%
CCC(=NC(C)c1ccccc1)c1c(O)n(C)c(=O)n(C)c1=O (stereo not drawn)	inconclusive: -34.5%
CCOc1ccc(-c2csc(N)c2C(=O)OC)cc1	inactive: 47.4%
CCCC(C)NS(=O)(=O)c1ccc(OC)c(C)c1 (stereo not drawn)	inconclusive: -32.9%
O=C(NCc1cccs1)c1cnn2cccnc12	inactive: 20.9%
Cc1cccc(NC(=O)c2ccc([N+](=O)[O-])s2)c1C	inconclusive: -38.9%
O=C1CC(Nc2ccccc2)C(=O)N1c1ccc(N2CCOCC2)cc1 (stereo not drawn)	active: -104%
COc1ccc(CC(=O)NNC(=S)Nc2ccccc2)cc1Br	inactive: -0.514%
COc1cccc(-c2ccc(C#N)c(OC(=O)c3ccc(Cl)cc3)n2)c1	inactive: 13%
CCOc1cc(-c2c(C#N)c(=O)[nH]c3c2c(C)nn3-c2ccc(F)cc2)ccc1O	inactive: 7.62%
CCc1ccccc1NC(=O)c1cccc(Oc2ccc([N+](=O)[O-])cc2Cl)c1	inconclusive: -37.1%
CCOC(=O)Cc1nnc2c(Nc3ccccc3F)nc3nonc3n12	inconclusive: -55.3%
NC(=O)/C(=C/c1ccco1)NC(=O)/C=C/c1ccccc1	inconclusive: -41.6%
COc1ccccc1NC(=O)NCC(=O)Nc1ccc(F)c(F)c1	inconclusive: -33.5%

Compound	activity change (PNC), negative = inhibition
CN(C)CC(C)(C)CNC(=O)c1cc(=O)c2ccccc2o1	inconclusive: -41.1%
Cc1ccc(NC(=O)CSc2nn(-c3ccccc3)c(=S)s2)cc1S(=O)(=O)N(C)C	inconclusive: -40.2%
C/C(=N\N1C(=O)c2ccccc2C1=O)c1cccc([N+](=O)[O-])c1	inconclusive: -59.9%
CCCc1nnc(SCC(=O)N2CCOCC2)n1Cc1ccco1	inactive: 40.9%
O=c1cc(-c2cccs2)oc2ccc(Cl)cc12	inactive: -4.66%
FC(F)(F)c1cnc(NNC(=S)Nc2ccccc2Cl)c(Cl)c1	inactive: 1.21%
CNC(=O)CSc1nnc(-c2cc(C)cc(C)c2)o1	active: -103%
COCc1c(C(=O)OCC(=O)NCCN2C(=O)CSC2=O)oc2ccccc12	inactive: 35.9%
NC(=O)Nc1ccc(F)cc1	inconclusive: -46.2%
CCOC(=O)c1nc(N2CCN(C(=O)OCC)CC2)c2c3c(sc2n1)CCCC3	inactive: -24.4%
C/C(CC1CC(COCC(C)C)OC1=O)=N\Nc1nc(-c2ccccc2)cs1 (stereo not drawn)	inconclusive: -69.5%
Cc1ccc(C(c2sc3nc(C)nn3c2O)N2CC(C)OC(C)C2)cc1 (stereo not drawn)	inconclusive: -49.8%
CCCOc1ccc(-c2nnc(N)s2)cc1	inconclusive: -76.6%
COC(=O)C1=C(C)NC(C)=C(C(=O)OC)C1c1ccccn1	inconclusive: -63.8%
N#Cc1c2c(c(NCCN3CCOCC3)n3c1nc1ccccc13)CCCC2	inconclusive: -33%
COc1cc(OC)cc(C(=O)N/N=C/c2ccc(OC)c(COc3ccc4ccccc4c3)c2)c1	inconclusive: -72.5%
CCCn1c2ccccc2c2nnc(SC(CC)C(=O)Nc3sc4c(c3C#N)CCCC4)nc21 (stereo not drawn)	inconclusive: -46.1%
CCN(Cc1ccccc1)C(=O)c1ccccc1C	inactive: -24.3%
CCOC(=O)c1c(CN(CC)CC)oc2ccc(OC)cc12	active: -100%
O=C(Nc1ccc(F)cc1F)c1ccco1	inconclusive: -57.4%

Two entries from above, as comma-separated lines:
Compound,"activity change (PNC), negative = inhibition"
N#Cc1c2c(c(NCCN3CCOCC3)n3c1nc1ccccc13)CCCC2,inconclusive: -33%
COc1cc(OC)cc(C(=O)N/N=C/c2ccc(OC)c(COc3ccc4ccccc4c3)c2)c1,inconclusive: -72.5%

Part of the list above, field by field.
CCCc1nnc(SCC(=O)N2CCOCC2)n1Cc1ccco1
  activity change (PNC), negative = inhibition: inactive: 40.9%
O=c1cc(-c2cccs2)oc2ccc(Cl)cc12
  activity change (PNC), negative = inhibition: inactive: -4.66%

(list continues)

Compound	activity change (PNC), negative = inhibition
Fc1ccc(Nc2nc(Oc3ccc4c(c3)OCO4)nc(N3CCOCC3)n2)c(F)c1	active: -95.2%
COc1ccccc1C(CC(=O)Nc1ccc(Cl)cc1)c1ccc(OC(C)C)cc1 (stereo not drawn)	inconclusive: -55.7%
CCCNC(=O)Nc1ccc2c(c1)N(C)C(=O)c1ccccc1S2	inconclusive: -50.1%
CC1=N/C(=C/c2ccc([N+](=O)[O-])cc2)C(=O)N1c1ccc(Cl)cc1Cl	inconclusive: -49.7%
COc1ccc(N(C(=O)Cn2nnc(-c3ccc(Cl)cc3)n2)C(C(=O)NCC2CCCO2)c2ccc(C)cc2)cc1 (stereo not drawn)	inconclusive: -41.4%
COc1ccc(NS(=O)(=O)Cc2ccccc2Cl)cn1	inconclusive: -56%
Cc1nonc1NC(=O)OC1CCCCC1	inconclusive: -50.2%
O=C(CN1CCN(C(=O)c2ccco2)CC1)Nc1cc(Cl)ccc1Cl	inactive: 12.1%
CC1=NN(c2ccccc2)C(=O)C1N=Nc1ccccc1 (stereo not drawn)	inactive: -9%
N#Cc1c(N)oc(-c2cccs2)c1-c1cccs1	inconclusive: -33.1%
COc1cccc(/C=C2\N=C3CCCCCN3C2=O)c1	inactive: 27.3%
Cc1cc2cc(CN(Cc3cccs3)S(=O)(=O)c3ccc4c(c3)OCCO4)c(=O)[nH]c2cc1C	inconclusive: -56.8%
CCOC(=O)C1=C(c2ccccc2)N=c2s/c(=C\c3cc(OC)c(OC)c(OC)c3)c(=O)n2C1c1cccs1 (stereo not drawn)	inactive: 12.9%
COc1ccc(N(CC(=O)NC(C)(C)C)C(=O)c2ccco2)cc1	inconclusive: -60.9%
NC(=O)c1oc2ccc(Cl)cc2c1NC(=O)CN1CCOCC1	inactive: -7.5%
O=S(=O)(NCCOCC(F)(F)C(F)F)c1ccc2oc3ccccc3c2c1	inconclusive: -50.7%
CC(=O)Nc1ccc(S(=O)(=O)Nc2ccc(N3CCOCC3)c(F)c2)cc1	inconclusive: -66.6%
COc1ccc(NC(=O)CN(c2ccc([N+](=O)[O-])cc2)S(=O)(=O)c2ccccc2)cc1	inconclusive: -38.8%

Source: PubChem BioAssay AID2417 (National Center for Advancing Translational Sciences (NCATS), 2010)
